Assay results from patent US12083134B2, “Anacardic acid for neural repair” (Vanderbilt University, priority 2018, dated 2024).

Tested on: IL-33 expression in OPCs
Assay: q-PCR on the induction of IL-33 in OPCs cultured with AA
Type: cell-based, rat
Conditions: 3 h, 20 ng/cDNA; for GAPDH (ct): control gene
Procedure: The effect of AA on the expression of myelin genes, MBP, and IL-33 was examined. […] Natarajan et al., PLOS One, 11(3):e0152163 (2016); Sriram et al., Neurology, Abstract presented at the American Academy of Neurology, 2016 (2016). The studies were done in OPCs obtained from rat pups. OPCs were treated with AA (2.5 μM) for 3 hours and message levels were quantified using qPCR analysis. OPCs treated with AA induced the major myelin genes Mbp, Mog and Plp.
The expression of IL-33 induced by AA in OPCs was also examined. […] (FIG. 3). The data is expressed as fold change compared to the control protein GAPDH.

CCCCCCCCCCCCCCCc1cccc(O)c1C(=O)O [AA, anacardic acid]
IL-33 (ct) (AA 2.5 μM): 30.72 ct
GAPDH (ct) (AA 2.5 μM): 28.285 ct
IL-33 (ct) (AA 5 μM): 30.41 ct
GAPDH (ct) (AA 5 μM): 27.135 ct
